The numbers were not newly measured in patent US12048763B2, “Compositions and methods for treating sialorrhea” (priority 2021, dated 2024), which cites them from elsewhere.

For this series the following is noted: 1.67 mg atropine intramuscularly to adults by 2 mg AtroPen delivery system.

Consider `CN1C2CCC1CC(OC(=O)C(CO)c1ccccc1)C2` (racemic) [atropine, 1αH,5αH-tropan-3-ol (±)-tropate (ester)], for which the “mean time to maximum plasma concentration (Tmax)” value is 3 min. Besides, the “peak plasma concentration Cmax” value (mean±SEM) is around 9.6 ± 1.5 ng/mL.
